PubChem BioAssay AID720710 – VTT Finland – 2013

Test: 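siRNAs sensitising CCNE1-overexpressing U-2 OS cells to replication stress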 (primary screen)
Cell system: human U-2 OS bone cancer cells, parental and a cyclin E (CCNE1) overexpressing line
Reagent: single siRNA against human genes, 1 µM siRNA in the printed spot mix
Time to read-out: 67 h
Challenge: half the arrays: hydroxyurea 2 mM for 16 h, then 3 h recovery; other arrays untreated
Detection: 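EdU click signal imaged per DAPI-stained nucleus at 67 h; each spot divided by its subgrid median, then z-scored relative to non-targeting control spots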
Direction: EdU z-score, cyclin E line, hydroxyurea and EdU z-score, parental, hydroxyurea: higher = more DNA synthesis than non-targeting controls
Shown is a random part of about 1,380 deposited reagents. 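One array per condition without replicates; hydroxyurea arrays received 2 mM for 16 h plus 3 h recovery.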 Reagents against one gene are numbered here. Further read-outs or replicates are left out here.

SLX1A (GeneID 548593) #1
- EdU z-score, cyclin E line, hydroxyurea: -0.138
- EdU z-score, parental, hydroxyurea: -0.166

SLX1A (GeneID 548593) #2
- EdU z-score, cyclin E line, hydroxyurea: 0.594
- EdU z-score, parental, hydroxyurea: 1.23

DDB1 (GeneID 1642) #1
- EdU z-score, cyclin E line, hydroxyurea: 0.196
- EdU z-score, parental, hydroxyurea: -1.42

DDB1 (GeneID 1642) #2
- EdU z-score, cyclin E line, hydroxyurea: 1.1
- EdU z-score, parental, hydroxyurea: 0.0753

MACROH2A1 (GeneID 9555) #1
- EdU z-score, cyclin E line, hydroxyurea: -1.74
- EdU z-score, parental, hydroxyurea: -1.29

MACROH2A1 (GeneID 9555) #2
- EdU z-score, cyclin E line, hydroxyurea: -1.08
- EdU z-score, parental, hydroxyurea: 1.31

H2BC10 (GeneID 8346) #1
- EdU z-score, cyclin E line, hydroxyurea: -0.0724
- EdU z-score, parental, hydroxyurea: -1.98

H2BC10 (GeneID 8346) #2
- EdU z-score, cyclin E line, hydroxyurea: 1.01
- EdU z-score, parental, hydroxyurea: -1.34

NEK1 (GeneID 4750) #1
- EdU z-score, cyclin E line, hydroxyurea: -3.02
- EdU z-score, parental, hydroxyurea: -3.07

NEK1 (GeneID 4750) #2
- EdU z-score, cyclin E line, hydroxyurea: -1.7
- EdU z-score, parental, hydroxyurea: -1.63

MPZ (GeneID 4359) #1
- EdU z-score, cyclin E line, hydroxyurea: -0.823
- EdU z-score, parental, hydroxyurea: 0.904

MPZ (GeneID 4359) #2
- EdU z-score, cyclin E line, hydroxyurea: 1.46
- EdU z-score, parental, hydroxyurea: 1.94

N4BP2L1 (GeneID 90634) #1
- EdU z-score, cyclin E line, hydroxyurea: -0.274
- EdU z-score, parental, hydroxyurea: -1.2

N4BP2L1 (GeneID 90634) #2
- EdU z-score, cyclin E line, hydroxyurea: 1.23
- EdU z-score, parental, hydroxyurea: -0.614

SETD7 (GeneID 80854) #1
- EdU z-score, cyclin E line, hydroxyurea: -0.147
- EdU z-score, parental, hydroxyurea: -0.154

SETD7 (GeneID 80854) #2
- EdU z-score, cyclin E line, hydroxyurea: 0.442
- EdU z-score, parental, hydroxyurea: 1.4

HIRA (GeneID 7290) #1
- EdU z-score, cyclin E line, hydroxyurea: -1.84
- EdU z-score, parental, hydroxyurea: -2.38

HIRA (GeneID 7290) #2
- EdU z-score, cyclin E line, hydroxyurea: 0.261
- EdU z-score, parental, hydroxyurea: 2.78

No new results follow: entries from further up.
DDB1 (GeneID 1642) #2
- EdU z-score, cyclin E line, hydroxyurea: 1.1
- EdU z-score, parental, hydroxyurea: 0.0753

MACROH2A1 (GeneID 9555) #1
- EdU z-score, cyclin E line, hydroxyurea: -1.74
- EdU z-score, parental, hydroxyurea: -1.29

MACROH2A1 (GeneID 9555) #2
- EdU z-score, cyclin E line, hydroxyurea: -1.08
- EdU z-score, parental, hydroxyurea: 1.31

H2BC10 (GeneID 8346) #1
- EdU z-score, cyclin E line, hydroxyurea: -0.0724
- EdU z-score, parental, hydroxyurea: -1.98

H2BC10 (GeneID 8346) #2
- EdU z-score, cyclin E line, hydroxyurea: 1.01
- EdU z-score, parental, hydroxyurea: -1.34

Additional results follow.
SMARCE1 (GeneID 6605) #1
- EdU z-score, cyclin E line, hydroxyurea: -0.5
- EdU z-score, parental, hydroxyurea: 0.755

SMARCE1 (GeneID 6605) #2
- EdU z-score, cyclin E line, hydroxyurea: 0.88
- EdU z-score, parental, hydroxyurea: 1.26

HMOX1 (GeneID 3162) #1
- EdU z-score, cyclin E line, hydroxyurea: -1.94
- EdU z-score, parental, hydroxyurea: 0.832

HMOX1 (GeneID 3162) #2
- EdU z-score, cyclin E line, hydroxyurea: 0.0529
- EdU z-score, parental, hydroxyurea: 1.03

RNASEH2A (GeneID 10535) #1
- EdU z-score, cyclin E line, hydroxyurea: 2.04
- EdU z-score, parental, hydroxyurea: -1.88

RNASEH2A (GeneID 10535) #2
- EdU z-score, cyclin E line, hydroxyurea: 2.19
- EdU z-score, parental, hydroxyurea: 1

HUWE1 (GeneID 10075) #1
- EdU z-score, cyclin E line, hydroxyurea: -0.281
- EdU z-score, parental, hydroxyurea: -1.22

HUWE1 (GeneID 10075) #2
- EdU z-score, cyclin E line, hydroxyurea: -0.113
- EdU z-score, parental, hydroxyurea: 2.5

CFAP65 (GeneID 255101) #1
- EdU z-score, cyclin E line, hydroxyurea: 0.61
- EdU z-score, parental, hydroxyurea: -0.759

CFAP65 (GeneID 255101) #2
- EdU z-score, cyclin E line, hydroxyurea: 1.1
- EdU z-score, parental, hydroxyurea: 3.14

CBL (GeneID 867) #1
- EdU z-score, cyclin E line, hydroxyurea: -1.97
- EdU z-score, parental, hydroxyurea: 1.79

CBL (GeneID 867) #2
- EdU z-score, cyclin E line, hydroxyurea: 0.773
- EdU z-score, parental, hydroxyurea: 2.66

MRE11 (GeneID 4361) #1
- EdU z-score, cyclin E line, hydroxyurea: -2.44
- EdU z-score, parental, hydroxyurea: -3.38

MRE11 (GeneID 4361) #2
- EdU z-score, cyclin E line, hydroxyurea: -0.771
- EdU z-score, parental, hydroxyurea: -0.891
